{"source": "PubChem BioAssay AID504764 – Drosophila RNAi Screening Center – 2011", "screen": "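Genes whose knock-down alters Notch-dependent transcription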 (primary screen)", "cells": "Drosophila Kc167 cells", "knock-down reagent": "long dsRNA against Drosophila genes", "time to read-out": "about 5 days (4 days dsRNA, then 24 h after transfection)", "treatment": "transfection of constitutively active membrane-tethered Notch lacking the extracellular domain, read 24 h later", "read-out": "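Light from a Notch-responsive E(spl)m3 luciferase reporter under active Notch, with control-promoter and no-Notch reporter wells to normalise; raw counts from paired wells a and b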", "scale": "induced reporter light, run 1, well a and induced reporter light, run 1, well b: higher = more light from the Notch target reporter with active Notch; control promoter light, run 1, well a and control promoter light, run 1, well b: higher = more light from the viral control promoter (cell number, transfection, viability); uninduced reporter light, run 1, well a: higher = more light from the Notch target reporter without active Notch", "active means": "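Wells with low control signal or poorly matching duplicates excluded; duplicates averaged; per source plate, z beyond ±2 for induced/control log2 ratio or beyond ±1.8 for induced/uninduced marks a hit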", "calls": "active = modifier hit (raised or lowered Notch signal); inactive = not a hit", "note": "In all, the deposit lists about 22,000 reagents; shown is a random part of those with a known target gene and a result. Of all reagents, 403 (1.9%) got an active call. 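Unnormalised raw counts per well; ratio z-scores behind the hit calls and whether each hit raises or lowers signal are not deposited.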 Entries without a mark were called inactive. Not given: the amount of reagent."}
{"gene knocked down": "140up", "dsRNA": "DRSC12634", "induced reporter light, run 1, well a": 1.34e5, "induced reporter light, run 1, well b": 1.27e5, "control promoter light, run 1, well a": 99935, "control promoter light, run 1, well b": 85535, "uninduced reporter light, run 1, well a": 9825}
{"gene knocked down": "CG8468", "dsRNA": "DRSC07190", "induced reporter light, run 1, well a": 98980, "induced reporter light, run 1, well b": 97995, "control promoter light, run 1, well a": 1.23e5, "control promoter light, run 1, well b": 1.34e5, "uninduced reporter light, run 1, well a": 7205}
{"gene knocked down": "CG17111", "dsRNA": "DRSC15174", "induced reporter light, run 1, well a": 1.53e5, "induced reporter light, run 1, well b": 1.59e5, "control promoter light, run 1, well a": 1.95e5, "control promoter light, run 1, well b": 1.89e5, "uninduced reporter light, run 1, well a": 13780}
{"gene knocked down": "RhoGEF3", "dsRNA": "DRSC08351", "induced reporter light, run 1, well a": 1.00e5, "induced reporter light, run 1, well b": 1.42e5, "control promoter light, run 1, well a": 2.19e5, "control promoter light, run 1, well b": 1.74e5, "uninduced reporter light, run 1, well a": 6025}
{"gene knocked down": "RhoGEF3", "dsRNA": "DRSC08352", "induced reporter light, run 1, well a": 1.25e5, "induced reporter light, run 1, well b": 1.33e5, "control promoter light, run 1, well a": 2.95e5, "control promoter light, run 1, well b": 2.68e5, "uninduced reporter light, run 1, well a": 6385}
{"gene knocked down": "Gclm", "dsRNA": "DRSC15677", "induced reporter light, run 1, well a": 99720, "induced reporter light, run 1, well b": 1.06e5, "control promoter light, run 1, well a": 1.25e5, "control promoter light, run 1, well b": 1.03e5, "uninduced reporter light, run 1, well a": 10555}
{"gene knocked down": "RanBP3", "dsRNA": "DRSC14217", "induced reporter light, run 1, well a": 305, "induced reporter light, run 1, well b": 420, "control promoter light, run 1, well a": 540, "control promoter light, run 1, well b": 450, "uninduced reporter light, run 1, well a": 328}
{"gene knocked down": "Hmgcr", "dsRNA": "DRSC16704", "induced reporter light, run 1, well a": 1.35e5, "induced reporter light, run 1, well b": 1.17e5, "control promoter light, run 1, well a": 1.29e5, "control promoter light, run 1, well b": 1.28e5, "uninduced reporter light, run 1, well a": 9310}
{"gene knocked down": "mv", "dsRNA": "DRSC08208", "induced reporter light, run 1, well a": 84935, "induced reporter light, run 1, well b": 1.10e5, "control promoter light, run 1, well a": 1.37e5, "control promoter light, run 1, well b": 1.40e5, "uninduced reporter light, run 1, well a": 7410}
{"gene knocked down": "mv", "dsRNA": "DRSC08570", "induced reporter light, run 1, well a": 1.24e5, "induced reporter light, run 1, well b": 1.24e5, "control promoter light, run 1, well a": 2.01e5, "control promoter light, run 1, well b": 1.76e5, "uninduced reporter light, run 1, well a": 5595}
{"gene knocked down": "sim", "dsRNA": "DRSC17054", "induced reporter light, run 1, well a": 2.86e5, "induced reporter light, run 1, well b": 2.84e5, "control promoter light, run 1, well a": 2.36e5, "control promoter light, run 1, well b": 2.43e5, "uninduced reporter light, run 1, well a": 22795}
{"gene knocked down": "CG33258", "dsRNA": "DRSC09415", "induced reporter light, run 1, well a": 1.64e5, "induced reporter light, run 1, well b": 1.88e5, "control promoter light, run 1, well a": 2.23e5, "control promoter light, run 1, well b": 2.50e5, "uninduced reporter light, run 1, well a": 16282}
{"gene knocked down": "l(1)G0289", "dsRNA": "DRSC18215", "induced reporter light, run 1, well a": 1.92e5, "induced reporter light, run 1, well b": 1.82e5, "control promoter light, run 1, well a": 2.71e5, "control promoter light, run 1, well b": 2.34e5, "uninduced reporter light, run 1, well a": 12635}
{"gene knocked down": "PIP82", "dsRNA": "DRSC18694", "induced reporter light, run 1, well a": 1.62e5, "induced reporter light, run 1, well b": 1.72e5, "control promoter light, run 1, well a": 2.79e5, "control promoter light, run 1, well b": 3.41e5, "uninduced reporter light, run 1, well a": 11605}
{"gene knocked down": "CG1227", "dsRNA": "DRSC12534", "induced reporter light, run 1, well a": 1.31e5, "induced reporter light, run 1, well b": 1.61e5, "control promoter light, run 1, well a": 1.17e5, "control promoter light, run 1, well b": 89705, "uninduced reporter light, run 1, well a": 11935}
{"gene knocked down": "yellow-f", "dsRNA": "DRSC15348", "induced reporter light, run 1, well a": 3.21e5, "induced reporter light, run 1, well b": 3.16e5, "control promoter light, run 1, well a": 2.63e5, "control promoter light, run 1, well b": 2.93e5, "uninduced reporter light, run 1, well a": 24250}
{"gene knocked down": "CG15676", "dsRNA": "DRSC04267", "induced reporter light, run 1, well a": 46705, "induced reporter light, run 1, well b": 59970, "control promoter light, run 1, well a": 41125, "control promoter light, run 1, well b": 49350, "uninduced reporter light, run 1, well a": 2530}
{"gene knocked down": "betaTub56D", "dsRNA": "DRSC07583", "induced reporter light, run 1, well a": 16390, "induced reporter light, run 1, well b": 12260, "control promoter light, run 1, well a": 23070, "control promoter light, run 1, well b": 20265, "uninduced reporter light, run 1, well a": 2832}

Already shown: an excerpt of the list.
{"gene knocked down": "CG17111", "dsRNA": "DRSC15174", "induced reporter light, run 1, well a": 1.53e5, "induced reporter light, run 1, well b": 1.59e5, "control promoter light, run 1, well a": 1.95e5, "control promoter light, run 1, well b": 1.89e5, "uninduced reporter light, run 1, well a": 13780}
{"gene knocked down": "RhoGEF3", "dsRNA": "DRSC08351", "induced reporter light, run 1, well a": 1.00e5, "induced reporter light, run 1, well b": 1.42e5, "control promoter light, run 1, well a": 2.19e5, "control promoter light, run 1, well b": 1.74e5, "uninduced reporter light, run 1, well a": 6025}
